To fix the notation:
B1: Rpb7; numbered along this chain (parent)
chain: MFFIKDLSLNITLHPSFFGPRMKQYLKTKLLEEVEGSCTGKFGYILCVLDYDNIDIQRGRILPTDGSAEFNVKYRAVVFKPFKGEVVDGTVVSCSQHGFEVQVGPMKVFVTKHLMPQDLTFNAGSNPPSYQSSEDVITIKSRIRVKIEGCISQVSSIHAIGSIKEDYLGAI

Variants of B1 are the subject of series [1]. In words: log2 fold change of mutant abundance, UV-irradiated vs unirradiated; higher = more UV resistant (enriched after UV). Particulars: with Saccharomyces cerevisiae rad7Δ rad26Δ; UV dose (J/m2): 10; genetic background: rad7Δ rad26Δ rpb7Δ + plasmid RPB7 library; outgrowth: 10 cell divisions. As to the method:
(§1)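 Error-prone PCR random mutant library of yeast RPB7 (codons 2-171) on a LEU2 plasmid, shuffled into rad7Δ rad26Δ S. cerevisiae (BJ5465 background) with genomic RPB7 deleted. Cells were irradiated with 10 J/m2 UV (254 nm) or left unirradiated and grown for 10 divisions. Plasmid RPB7 amplicons were Illumina-sequenced and per-codon amino-acid counts were compared UV vs no UV with NOISeq (3 repeats, ARSyNseq batch correction). Positive log2FC means enrichment after UV, i.e. UV resistance / derepressed TCR.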

Series [2] covers variants of B1. Description: NOISeq theta enrichment statistic, UV-irradiated vs unirradiated (dimensionless); higher = more UV resistant (enriched after UV). Particulars: with Saccharomyces cerevisiae rad7Δ rad26Δ; UV dose (J/m2): 10; genetic background: rad7Δ rad26Δ rpb7Δ + plasmid RPB7 library; outgrowth: 10 cell divisions. As to the method: as §1

This is an account of results in the supplement of paper PMC10382679.

Single values of this set are uncertain.

As for G66W, the “log2 fold change of mutant abundance” value in series [1] is -0.0702. The “NOISeq theta enrichment statistic” value in series [2] is -0.173.
G66R: in series [1], the “log2 fold change of mutant abundance” value is -0.19. Besides, in series [2], the “NOISeq theta enrichment statistic” value was -0.392.
The corresponding values for Q57N are 0.16 and 0.186.
The corresponding values for K5S are -0.774 and -0.317.
The corresponding values for K5N are -0.0686 and -0.2.
In the case of K5T, the “log2 fold change of mutant abundance” value in series [1] is 0.109. For the same variant, in series [2], the “NOISeq theta enrichment statistic” value stood at 0.17.
In the case of K5E, the “log2 fold change of mutant abundance” value in series [1] stood at 0.0161. Moreover, the “NOISeq theta enrichment statistic” value in series [2] was found to be 0.0309.
For F121C the same measures were -0.0117 and -0.0371.
F17Y: the “log2 fold change of mutant abundance” value in series [1] turned out to be 0.0336. Besides, in series [2], the “NOISeq theta enrichment statistic” value amounted to 0.164.
The corresponding values for T64R are -0.316 and -0.503.
For S67V the same measures were -0.194 and -0.154.
As for S67H, the “log2 fold change of mutant abundance” value in series [1] was found to be 0.000577. In addition, the “NOISeq theta enrichment statistic” value in series [2] was found to be 0.000327.
The corresponding values for Q153I are -1.1 and -0.561.
For Q153R the same measures were -0.345 and -1.16.
Take A123R: in series [1], the “log2 fold change of mutant abundance” value is -0.121. Further, in series [2], the “NOISeq theta enrichment statistic” value is -0.0781.
As for A123Q, in series [1], the “log2 fold change of mutant abundance” value was 0.353. Also, the “NOISeq theta enrichment statistic” value in series [2] worked out at 0.173.
For the variant G40F, the “log2 fold change of mutant abundance” value in series [1] is -0.217. The “NOISeq theta enrichment statistic” value in series [2] is -0.18.
The corresponding values for G40S are -0.565 and -1.01.
For F3V the same measures were -0.163 and -0.159.
The corresponding values for F3H are -1.82 and -0.805.
As for E35K, in series [1], the “log2 fold change of mutant abundance” value is -0.0809. For the same variant, the “NOISeq theta enrichment statistic” value in series [2] was -0.152.
For E35S the same measures were -0.306 and -0.209.
P81A: in series [1], the “log2 fold change of mutant abundance” value was determined as 0.0317. For the same variant, the “NOISeq theta enrichment statistic” value in series [2] was 0.0428.
Regarding P116R, the “log2 fold change of mutant abundance” value in series [1] was -0.0373. Besides, the “NOISeq theta enrichment statistic” value in series [2] is -0.0586.
For P116T the same measures were 0.0232 and 0.134.
Regarding S132V, the “log2 fold change of mutant abundance” value in series [1] is -0.267. For the same variant, the “NOISeq theta enrichment statistic” value in series [2] is -0.227.
Turning to R58T, the “log2 fold change of mutant abundance” value in series [1] was -0.275. For the same variant, in series [2], the “NOISeq theta enrichment statistic” value is -0.131.
For R58P, in series [1], the “log2 fold change of mutant abundance” value is 0.139. Also, the “NOISeq theta enrichment statistic” value in series [2] is 0.235.
For the variant K23Q, the “log2 fold change of mutant abundance” value in series [1] was -0.073. The “NOISeq theta enrichment statistic” value in series [2] is -0.125.
The corresponding values for K29T are 0.0568 and 0.0794.
For F18Y the same measures were 0.0482 and 0.209.
The corresponding values for F18V are -0.143 and -0.203.
As for T120Y, in series [1], the “log2 fold change of mutant abundance” value came to 0.00323. For the same variant, the “NOISeq theta enrichment statistic” value in series [2] turned out to be 0.00271.
With V91M, the “log2 fold change of mutant abundance” value in series [1] is 0.216. Moreover, the “NOISeq theta enrichment statistic” value in series [2] turned out to be 0.21.
The corresponding values for A159G are -0.266 and -0.33.
For V34L the same measures were 0.0533 and 0.0822.
For V34S, the “log2 fold change of mutant abundance” value in series [1] is -0.00293. The “NOISeq theta enrichment statistic” value in series [2] was -0.00261.
For S125I the same measures were -0.759 and -0.428.
In the case of T12A, the “log2 fold change of mutant abundance” value in series [1] was -0.0929. The “NOISeq theta enrichment statistic” value in series [2] is -0.202.
The corresponding values for M115G are -0.0576 and -0.0488.
For M115I the same measures were 0.162 and 0.875.
Take M115V: in series [1], the “log2 fold change of mutant abundance” value came to 0.0501. Further, in series [2], the “NOISeq theta enrichment statistic” value amounted to 0.186.
In the case of M115F, the “log2 fold change of mutant abundance” value in series [1] came to 0.507. In series [2], the “NOISeq theta enrichment statistic” value is 0.395.
As to M115W, the “log2 fold change of mutant abundance” value in series [1] was found to be 0.353. In addition, the “NOISeq theta enrichment statistic” value in series [2] turned out to be 0.285.
The corresponding values for Y44S are 0.236 and 0.266.
For the variant Y44R, in series [1], the “log2 fold change of mutant abundance” value is -0.942. The “NOISeq theta enrichment statistic” value in series [2] was -0.362.
The corresponding values for I56K are 0.0861 and 0.0707.
Regarding I56Y, the “log2 fold change of mutant abundance” value in series [1] is -0.408. In series [2], the “NOISeq theta enrichment statistic” value is -0.18.
The corresponding values for I56S are 0.106 and 0.133.
For D65R the same measures were -0.259 and -0.122.
For V86G the same measures were 0.00216 and 0.00758.
V86S: the “log2 fold change of mutant abundance” value in series [1] turned out to be 0.128. In addition, the “NOISeq theta enrichment statistic” value in series [2] was 0.102.
For P105Y the same measures were -0.414 and -0.259.
As to G43E, the “log2 fold change of mutant abundance” value in series [1] was -0.548. The “NOISeq theta enrichment statistic” value in series [2] was -0.704.
On to E100I, for which the “log2 fold change of mutant abundance” value in series [1] is -0.207. The “NOISeq theta enrichment statistic” value in series [2] is -0.243.
The corresponding values for S95K are -0.311 and -0.259.
The corresponding values for S95N are 0.0144 and 0.0187.
Regarding S95D, the “log2 fold change of mutant abundance” value in series [1] is -0.281. The “NOISeq theta enrichment statistic” value in series [2] is -0.271.
